From patent US20060057569
For at least one entry, the source does not settle the construct or the ends of the probe.

Test system: AciI restriction endonuclease
Assay: enzyme reaction in vitro
Settings: 3'-C22 spacer-NH2, immobilised on well, NEB buffer 3, 37 C, 1 h, 2 units, purified recombinant protein, protein details: New England Biolabs, label: 5'-FITC, folded or branched DNA

Row | Sequence | activity on this sequence (fluorescence x1000 falls from about 350 to about 2.1 without target or with non-matching RNA B') | activity on this sequence (fluorescence x1000 falls from about 352 to about 2.1 without target or with non-matching RNA A')
1 | GCCCGCGCAATAGGGATGGCTCAACAGCGCGGGC [hairpin probe A] | active | 
2 | GCCCGCGCTTAGAGTGCAAAATGAAAGCGCCGCGCGGGC [hairpin probe B] |  | active
